# Measurements from patent publication US20200155555A1, “VITAMIN RECEPTOR DRUG DELIVERY CONJUGATES FOR TREATING INFLAMMATION” (Endocyte, Inc., priority 2007, published 2020).
# The chains behind the UniProt entries cited, without tags or fusion partners. Residues count along the entry.
# UniProt P15328, 25-234: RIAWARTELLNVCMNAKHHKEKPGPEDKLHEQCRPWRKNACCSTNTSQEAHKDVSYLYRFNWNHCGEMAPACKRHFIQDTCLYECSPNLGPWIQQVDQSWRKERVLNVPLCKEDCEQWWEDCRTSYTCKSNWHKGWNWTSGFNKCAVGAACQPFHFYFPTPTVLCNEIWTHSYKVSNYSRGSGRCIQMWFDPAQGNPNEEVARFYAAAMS
# UniProt P14207, 17-230: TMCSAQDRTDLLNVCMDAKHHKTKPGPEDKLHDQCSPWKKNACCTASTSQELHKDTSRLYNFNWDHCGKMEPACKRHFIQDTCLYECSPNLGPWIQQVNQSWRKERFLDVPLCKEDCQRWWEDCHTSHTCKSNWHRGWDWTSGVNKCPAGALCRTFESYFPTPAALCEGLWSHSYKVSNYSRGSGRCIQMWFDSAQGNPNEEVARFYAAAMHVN
# “And” between values parts separate entries of the source, which are not always exact repeats. Equal values may be shown once. “Also recorded” adds a separate entry of the source. Read-outs that look alike come from different tables or passages of the source. For part of these data: Not every detail of the peptide structures is certain; ends, links or a residue may be inferred. For part of these data: For at least one compound, name, drawing or mass did not settle the structure.
# Tests used:
# RAW264.7 cells = assay: XTT cell viability / proliferation assay; assay type: cell-based, murine; conditions: 72 h incubations of RAW264.7 macrophages
# Description: After 2 h incubation, the drug-containing media were replaced and the cells were allowed to incubate further for 70 h. Four hours prior to the end of incubation, LPS was added to the treated cells at a final concentration of 100 ng/mL. 100 μL of the culture supernatants were collected for TNF-α analysis using a commercial ELISA kit.
# RAW264.7 cells in 96-well plates were treated with vehicle (culture medium) or 10-fold serial dilutions of EC0932 without or with 100-fold excess free folate. The drug-containing medium was replaced after 2 h treatment and the cells were allowed to incubate further in standard medium for 70 h. Four hours prior to the end of incubation, LPS was added to the treated cells at a final concentration of 100 ng/mL. […] The cell viability was assessed by adding XTT (2,3-bis(2-methoxy-4-nitro-5-sulfo-phenyl)-2H-tetrazolium-5-carboxanilide) to the remaining medium for an additional 4 h following the manufacturer's instructions (Roche Applied Science, Indianapolis, Ind.).
# At 4 h before the end of incubation, LPS (100 ng/ml) was added to the culture medium to stimulate cytokine production.
# [1] = molecular target: folate receptors (FR-α) of KB cells (Homo sapiens, UniProt P15328); conditions: competitive binding with 3H-folic acid, FR-α positive KB cells
# [2] = molecular target: folate-receptor-beta positive CHO-FR-β cells (Homo sapiens, UniProt P14207); conditions: displacement of 3H-folic acid
# [3] = tested on: rats with adjuvant-induced arthritis (AIA); assay: Adjuvant-induced arthritis (AIA) model
# Description: Female Lewis rats were fed a folate-deficient diet (Harlan Teklad, Indianapolis, Ind.) for 9-10 days prior to arthritis induction. The adjuvant-induced arthritis (AIA) was induced by intradermal inoculation (at the base of tail) of 0.5 mg of heat-killed Mycobacteria butyricum (BD Diagnostic Systems, Sparks, Md.) in 100 μL light mineral oil (Sigma). Ten days after arthritis induction, paw edema in rats was assessed using a modified arthritis scoring system: 0=no arthritis; 1=swelling in one type of joint; 2=swelling in two types of joint; 3=swelling in three types of joint; 4=swelling of the entire paw. A total score for each rat is calculated by summarizing the scores for each of the four paws, giving a maximum score of 16 for each rat. On Day 10 post arthritis induction, rats with a total arthritis score of ≥2 were removed from the study and the remaining rats were distributed evenly across the control and treatment groups (n=5 for all groups except that n=2-3 for healthy controls). All treatments started on Day 10 unless mentioned otherwise. […]
# Rats with adjuvant arthritis were treated subcutaneously with EC0932 (250 nmol/kg) in the absence or presence of 500-fold excess of EC0923 (125 μmol/kg) on days 10, 13, 17, and 20 post arthritis induction. The animals in the healthy and arthritis control groups were left untreated. The arthritis scores and animal body weights were recorded three times a week (see FIG. 19A, B). At the completion of study (day 24), the rats were euthanized by CO2 asphyxiation and processed for paw and spleen weights (see FIG. 20A, B).
# The rat adjuvant induced arthritis (AIA) model resembles the characteristics of RA in humans and has been widely used to study the impact of novel anti-inflammatory agents.
# [4] = tested on: downstream targets of mTOR (P70 S6-kinase and Ribosomal S6) in KB cells; assay: mTOR knockdown, Western blot in KB cells; assay type: cell-based; conditions: 1 h pulse/4 h chase
Structure (SMILES),potency on cell proliferation and LPS-stimulated TNF-α production (RAW264.7 cells),Relative affinity to folate receptors (folic acid set as 1) [1],Relative affinity to folate receptors (folic acid set as 1) ([1]; listed as AMT),Relative affinity to folate receptors (folic acid set as 1) [2],"spleen weight compared to arthritic controls ([3]; 500 nmol/kg 3 times a week, EC0565 sc, everolimus oral)","overall efficacy against AIA in dose/schedule study ([3]; EC0565 100, 500, 1000 nmol/kg/dose biweekly or 1000 nmol/kg/dose once weekly)","blocking of anti-arthritis activity by folate competitor ([3]; EC0565 sc 500 nmol/kg days 10, 13, 17 with 500-fold excess EC0923)",decrease in dorsal to ventral paw thickness ([3]; EC0565 sc 500 nmol/kg tiw),decrease in summed histology scores ([3]; EC0565 sc 500 nmol/kg tiw),decreases in all scored histology parameters ([3]; EC0565 sc 500 nmol/kg tiw),radiographic analysis of hind paws ([3]; EC0565 sc 500 nmol/kg tiw),radiographic analysis of hind paws ([3]; EC0565 sc 500 nmol/kg twice a week),"efficacy compared with oral everolimus, oral MTX and s.c. etanercept ([3]; EC0565 sc 500 nmol/kg/dose, 6 doses in 2 weeks)","activity against AIA compared with everolimus ([3]; sc 500 nmol/kg twice a week, days 10, 13, 17, 20)",knockdown of downstream targets of mTOR [4]
"Nc1nc(N)c2nc(CNc3ccc(C(=O)N[C@@H](CCC(=O)O)C(=O)O)cc3)cnc2n1 [aminopterin, reference compound]",equally potent,0.008 and 0.004,0.004,0.004,,,,,,,,,,,
"CO[C@H]1C[C@@H]2CC[C@@H](C)[C@@](O)(O2)C(=O)C(=O)N2CCCC[C@H]2C(=O)O[C@H]([C@H](C)C[C@@H]2CC[C@@H](OCCOC(=O)OCCSSC[C@H](NC(=O)[C@H](CCC(=O)NC[C@H](O)[C@@H](O)[C@H](O)[C@H](O)CO)NC(=O)[C@H](CCC(=O)O)NC(=O)[C@H](CCC(=O)NC[C@H](O)[C@@H](O)[C@H](O)[C@H](O)CO)NC(=O)[C@H](CCC(=O)O)NC(=O)[C@H](CCC(=O)NC[C@H](O)[C@@H](O)[C@H](O)[C@H](O)CO)NC(=O)CC[C@H](NC(=O)c3ccc(NCc4cnc5nc(N)[nH]c(=O)c5n4)cc3)C(=O)O)C(=O)O)[C@H](OC)C2)CC(=O)[C@H](C)/C=C(\C)[C@@H](O)[C@@H](OC)C(=O)[C@H](C)C[C@H](C)/C=C/C=C/C=C/1C [EC0565, Everolimus-EC0488 Conjugate]",,,,,significantly decreased spleen weight compared to arthritic controls,very effective against AIA,partially blocked by EC0923,94%,94%,88-100%,minimal tissue and bone damage in their hind paws,minimal tissue and bone damage in their hind paws,more efficacious than oral everolimus on an equimolar basis; also recorded: more effective than oral MTX and subcutaneous etanercept in all parameters assessed except for the effect on spleen weight,as active or more active as everolimus against adjuvant-induced arthritis,"dose-dependent, and specific knockdown of the downstream targets of mTOR"
